Results as given in the supplement of paper PMC4840960.
± gives the standard deviation of the averaged measurements. Some of the results follow. Part of the spread comes from offsets between plates or batches.

Test system: E18 rat cortical neuron-glia co-culture
Assay: total nuclei (DAPI) / Olig2+ nuclei (ratio); higher = more depletion of OPC/OL lineage cells
Conditions: treatment time: 8 days (DIV5-DIV13)

Compound	total nuclei (1 µM)	total nuclei (5 µM)
C[C@H](CCC(=O)O)[C@H]1CC[C@H]2[C@@H]3[C@H](O)C[C@@H]4C[C@H](O)CC[C@]4(C)[C@H]3CC[C@]12C [Chenodeoxycholic Acid]	3.68	3.6
CNC(=C[N+](=O)[O-])NCCSCc1ccc(CN(C)C)o1 [Ranitidine]	3.3	4.2
CC(=O)CCCCn1c(=O)c2c(ncn2C)n(C)c1=O [Pentoxifylline]	3.65 ± 1.3	3.55 ± 0.92
CCCCNC(=O)NS(=O)(=O)c1ccc(C)cc1 [Tolbutamide]	2.9	2.7
Cc1ccc(O)c([C@H](CCN(C(C)C)C(C)C)c2ccccc2)c1 [Tolterodine]	3.73	> 40
CCCCC1=NC2(CCCC2)C(=O)N1Cc1ccc(-c2ccccc2-c2nnn[nH]2)cc1 [Irbesartan]	2.72	2.8
COc1cc(-c2ccc(=O)[nH]n2)ccc1OC(F)F [Zardaverine]	4.16	6.6
COc1ccccc1N1CCN(CC(O)COc2cccc3ccccc23)CC1 (stereo not given) [Naftopidil]	4.8	8.8
CC(C)n1c(/C=C/C(O)CC(O)CC(=O)O)c(-c2ccc(F)cc2)c2ccccc21 (stereo not given) [Fluvastatin]	4.25	4.5
c1ccc2c(CC3=NCCN3)cccc2c1 [Naphazoline]	4.59	4.3
CC1=C(C/C=C(\C)CCC[C@H](C)CCC[C@H](C)CCCC(C)C)C(=O)c2ccccc2C1=O [Phylloquinone]	2.69	2.8
C[C@H](CS)C(=O)N1CCC[C@H]1C(=O)O [Captopril]	2.77	2.9
COc1cc(OC)c(C(=O)CCCN2CCCC2)c(OC)c1 [Buflomedil]	3.6	4.8
CC(C)[C@H](N)C(=O)OCCOCn1cnc2c(=O)nc(N)[nH]c21 [Valaciclovir]	3.41	3.8
NS(=O)(=O)Cc1noc2ccccc12 [Zonisamide]	2.7	3.2
CC(=O)NS(=O)(=O)c1ccc(N)cc1 [Sulfacetamide]	2.76	2.9
Cc1ccsc1C(=CCCN1CCC[C@@H](C(=O)O)C1)c1sccc1C [Tiagabine]	3.85	4.1
O=C1CC2(CCCC2)CC(=O)N1CCNCC1COc2ccccc2O1 (stereo not given) [Binospirone]	4.1	4
CN(C)c1nc(N(C)C)nc(N(C)C)n1 [Altretamine]	2.61	2.8
C[C@@H]1C[C@H]2[C@@H]3CCC4=CC(=O)C=C[C@]4(C)[C@@]3(F)[C@@H](O)C[C@]2(C)[C@@]1(O)C(=O)CO [Dexamethazone]	4.4	4.3
C[C@@H]1O[C@@H](OC[C@H]2O[C@@H](Oc3c(-c4ccc(O)c(O)c4)oc4cc(O)cc(O)c4c3=O)[C@H](O)[C@@H](O)[C@@H]2O)[C@H](O)[C@H](O)[C@H]1O [Rutin]	2.7	2.7
COCCOC(=O)C1=C(C)NC(C)=C(C(=O)OC(C)C)C1c1cccc([N+](=O)[O-])c1 (stereo not given) [Nimodipine]	2.9	2.8
C[C@]12CC[C@@H]3c4ccc(O)cc4CC[C@H]3[C@@H]1CC[C@@H]2O [Estradiol]	4.56	4.5
NC(=O)N1c2ccccc2CC(=O)c2ccccc21 [Oxcarbazepine]	4.18	24.4

Individual results from the list:
Value of `Cc1ccc(O)c([C@H](CCN(C(C)C)C(C)C)c2ccccc2)c1` [Tolterodine] under total nuclei (1 µM): 3.73
Value of `CNC(=C[N+](=O)[O-])NCCSCc1ccc(CN(C)C)o1` [Ranitidine] under total nuclei (1 µM): 3.3
Value of `c1ccc2c(CC3=NCCN3)cccc2c1` [Naphazoline] under total nuclei (5 µM): 4.3

Additional structures.

Compound	total nuclei (1 µM)	total nuclei (5 µM)
CC(C)NCC(O)COc1cccc2[nH]ccc12 (stereo not given) [Pindolol]	4	4.4
CN1CC(=O)N2[C@H](c3ccc4c(c3)OCO4)c3[nH]c4ccccc4c3C[C@@H]2C1=O [Tadalafil]	4.53	3.8
CC(COc1ccccc1Cc1ccccc1)N1CCCCC1 (stereo not given) [Benproperine]	3.09	3.6
C[C@H]1C[C@H]2[C@@H]3CCC4=CC(=O)C=C[C@]4(C)[C@@]3(Cl)[C@@H](O)C[C@]2(C)[C@@]1(O)C(=O)CO [Beclomethasone]	2.73 ± 0.23	2.55 ± 0.49
CNS(=O)(=O)Cc1ccc2[nH]cc(CCN(C)C)c2c1 [Sumatriptan]	2.77	2.6
CC[C@]1(O)C[C@@H]2CN(CCc3c([nH]c4ccccc34)[C@@](C(=O)OC)(c3cc4c(cc3OC)N(C)[C@H]3[C@@](O)(C(N)=O)[C@H](O)[C@]5(CC)C=CCN6CC[C@]43[C@@H]65)C2)C1 [Vindesine]	> 40	> 40
CC1(C)S[C@@H]2[C@H](/N=C/N3CCCCCC3)C(=O)N2[C@H]1C(=O)O [Amdinocillin]	4.1	5.3
COc1ccc(-c2oc3c(CC=C(C)C)c(O[C@@H]4O[C@H](CO)[C@@H](O)[C@H](O)[C@H]4O)cc(O)c3c(=O)c2O[C@@H]2O[C@@H](C)[C@H](O)[C@@H](O)[C@H]2O)cc1 [Icariin]	2.99	3.2
Cc1onc(-c2ccccc2)c1C(=O)N[C@@H]1C(=O)N2[C@@H]1SC(C)(C)[C@@H]2C(=O)O [Oxacillin]	2.23	2.4
NS(=O)(=O)c1cc2c(cc1Cl)NCNS2(=O)=O [Hydrochlorothiazide]	3.77	3.6
COc1cc(NC(C)CCCN)c2ncccc2c1 (stereo not given) [Primaquine]	2.5	2.4
Cc1onc(-c2ccccc2)c1-c1ccc(S(N)(=O)=O)cc1 [Valdecoxib]	4.31	3.7
COc1ccc2cc(CCC(C)=O)ccc2c1 [Nabumetone]	3	2.9
CC(C)(C)NCC(O)c1ccc(O)c(CO)c1 (stereo not given) [Albuterol]	4.2	4.9
COc1ccc(CN2CCN(C(c3ccc(F)cc3)c3ccc(F)cc3)CC2)c(OC)c1OC [Lomerizine]	3.01	4.9
CN1C(=O)CC[C@H]1c1cccnc1 [Cotinine]	5.4	5.3
S=c1[nH]cnc2nc[nH]c12 [Mercaptopurine]	2.73	5.2
O=c1n(CCCN2CCN(c3cccc(Cl)c3)CC2)nc2ccccn12 [Trazodone]	5.54	4.9
CC(=O)S[C@@H]1CC2=CC(=O)CC[C@]2(C)[C@H]2CC[C@@]3(C)[C@@H](CC[C@@]34CCC(=O)O4)[C@H]12 [Spironolactone]	3.56	4.1
CCCNC(=O)NS(=O)(=O)c1ccc(Cl)cc1 [Chlorpropamide]	2.81	4.4
COc1ccc2[nH]c([S@@+]([O-])Cc3ncc(C)c(OC)c3C)nc2c1 [Esomeprazole]	3.09	3.3
Cc1ccc(-c2cc(C(F)(F)F)nn2-c2ccc(S(N)(=O)=O)cc2)cc1 [Celecoxib]	3.43	4.2
CCN(CC)CCOc1ccc(C(=C(Cl)c2ccccc2)c2ccccc2)cc1 [Clomiphene]	2.8	> 40
CC(=O)/N=c1/sc(S(N)(=O)=O)nn1C [Methazolamide]	2.27	2.6

Compound	total nuclei (1 µM)	total nuclei (5 µM)
NC1CCN(c2cccc(Cl)n2)CC1	5.35	4.2
CC(C)NCC(O)COc1ccc(CC(N)=O)cc1 (stereo not given) [Atenolol]	2.89	2.8
CN(CCCN1c2ccccc2CCc2ccccc21)CC(=O)c1ccc(Cl)cc1 [Lofepramine]	3.8	> 40
CN1CCCCC1CCN1c2ccccc2Sc2ccc([S+](C)[O-])cc21 (stereo not given) [Mesoridazine]	3.5	4
CC1=Nc2ccc(Cl)cc2S(=O)(=O)N1 [Diazoxide]	2.81	2.8
CCc1oc2ccccc2c1C(=O)c1cc(Br)c(O)c(Br)c1 [Benzbromarone]	2.76	2.6
CNCC[C@@H](Oc1ccccc1C)c1ccccc1 [Atomoxetine]	3.54	4.7
Cc1onc(-c2c(Cl)cccc2Cl)c1C(=O)N[C@@H]1C(=O)N2[C@@H]1SC(C)(C)[C@@H]2C(=O)O [Dicloxacillin]	4.3	3.8
CC(=O)OCC(CCn1cnc2cnc(N)nc21)COC(C)=O [Famciclovir]	3.48	4.5
CC[C@H](C)C(=O)O[C@H]1C[C@@H](C)C=C2C=C[C@H](C)[C@H](CC[C@@H]3C[C@@H](O)CC(=O)O3)[C@H]21 [Lovastatin]	13.5	24.3
CC[C@H]1OC(=O)[C@H](C)[C@@H](O[C@H]2C[C@@](C)(OC)[C@@H](O)[C@H](C)O2)[C@H](C)[C@@H](O[C@@H]2O[C@H](C)C[C@H](N(C)C)[C@H]2O)[C@](C)(O)C[C@@H](C)CN(C)[C@H](C)[C@@H](O)[C@]1(C)O [Azithromycin]	3.9	4.9
Cc1nccn1CC1CCc2c(c3ccccc3n2C)C1=O (stereo not given) [Ondansetron]	4.03 ± 0.4	3.95 ± 0.35
C[C@@H]1C[C@H]2[C@@H]3CCC4=CC(=O)C=C[C@]4(C)[C@@]3(F)[C@@H](O)C[C@]2(C)[C@H]1C(=O)CO [Desoximetasone]	3.02	2.9
Cc1cn([C@H]2C[C@H](N=[N+]=[N-])[C@@H](CO)O2)c(=O)[nH]c1=O [Zidovudine]	2.67	2.8
CC(C[N+](C)(C)C)OC(N)=O (stereo not given) [Bethanechol]	4.21	4.2
Cc1cn([C@H]2C=C[C@@H](CO)O2)c(=O)[nH]c1=O [Stavudine]	3.94 ± 0.05	4.45 ± 0.49
CCc1nn(CCCN2CCN(c3cccc(Cl)c3)CC2)c(=O)n1CCOc1ccccc1 [Nefazodone]	2.8	3.6
O=c1[nH]cc(F)c(=O)[nH]1 [5-Fluorouracil]	26.3	> 40
COc1nc(C)nc(Cl)c1NC1=NCCN1 [Moxonidine]	7.17	6
CC(C)(C)NCC(O)c1cc(O)cc(O)c1 (stereo not given) [Terbutaline]	3.9	4
C[N+]1(C)CCC(OC(=O)C(O)(c2ccccc2)C2CCCC2)C1 (stereo not given) [Glycopyrrolate]	3.17 ± 0.69	3.6 ± 1.1
NS(=O)(=O)c1cc2c(cc1C(F)(F)F)NCNS2(=O)=O [Hydroflumethiazide]	4.06	2.7
